Measurements: the supplement of paper PMC7661543
± gives the standard deviation of the averaged measurements. The effect of the compound repeats well; differences between the knockouts mostly do not.

System: SKBR3
Experiment: relative cell number vs DMSO control (72 h) (% of DMSO); higher = less growth inhibition (more cells)
Experimental: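 QMAP-Seq: a pool of 5 breast cancer cell lines (ZR-75-1, SKBR3, HCC-38, MDA-MB-231, BT-20), each carrying 12 doxycycline-inducible Cas9 sgRNA perturbations (11 knockouts plus non-targeting sgNT), was treated with compounds for 72 h at four 10-fold doses (10 nM-10 uM or 1 nM-1 uM range). Barcodes were amplified and sequenced, and cell number was interpolated from 293T spike-in standard curves. The result is expressed as % of the median of DMSO wells. Two biological replicates.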

N[C@@H](CC(=O)N1CCn2c(nnc2C(F)(F)F)C1)Cc1cc(F)c(F)cc1F [Sitagliptin]
Conditions	relative cell number
sgRNA knockout: sgATF3, 10 nM	111 ± 35
sgRNA knockout: sgATF3, 100 nM	112 ± 22
sgRNA knockout: sgATF3, 1000 nM	112 ± 45
sgRNA knockout: sgATF3, 10000 nM	91.1 ± 5.3
sgRNA knockout: sgATF4, 10 nM	94.3 ± 25
sgRNA knockout: sgATF4, 100 nM	98.7 ± 10
sgRNA knockout: sgATF4, 1000 nM	105 ± 26
sgRNA knockout: sgATF4, 10000 nM	99.4 ± 7.7
sgRNA knockout: sgATF6, 10 nM	119 ± 53
sgRNA knockout: sgATF6, 100 nM	96.1 ± 6.7
sgRNA knockout: sgATF6, 1000 nM	127 ± 3.4
sgRNA knockout: sgATF6, 10000 nM	113 ± 4.3
sgRNA knockout: sgATG7, 10 nM	103 ± 28
sgRNA knockout: sgATG7, 100 nM	87.4 ± 25
sgRNA knockout: sgATG7, 1000 nM	89 ± 14
sgRNA knockout: sgATG7, 10000 nM	111 ± 1.9
sgRNA knockout: sgERN1, 10 nM	96.4 ± 27
sgRNA knockout: sgERN1, 100 nM	111 ± 10
sgRNA knockout: sgERN1, 1000 nM	112 ± 19
sgRNA knockout: sgERN1, 10000 nM	95.4 ± 14
sgRNA knockout: sgHSF1, 10 nM	108 ± 17
sgRNA knockout: sgHSF1, 100 nM	79.3 ± 14
sgRNA knockout: sgHSF1, 1000 nM	108 ± 15
sgRNA knockout: sgHSF1, 10000 nM	110.5 ± 0.98
sgRNA knockout: sgHSF2, 10 nM	99.4 ± 13
sgRNA knockout: sgHSF2, 100 nM	97.7 ± 6.7
sgRNA knockout: sgHSF2, 1000 nM	104 ± 11
sgRNA knockout: sgHSF2, 10000 nM	87.6 ± 9.3
sgRNA knockout: sgKEAP1, 10 nM	92.5 ± 14
sgRNA knockout: sgKEAP1, 100 nM	92.5 ± 4.3
sgRNA knockout: sgKEAP1, 1000 nM	95.5 ± 8.7
sgRNA knockout: sgKEAP1, 10000 nM	104 ± 7.1
sgRNA knockout: sgNFE2L2, 10 nM	121 ± 34
sgRNA knockout: sgNFE2L2, 100 nM	109 ± 7.4
sgRNA knockout: sgNFE2L2, 1000 nM	103 ± 7.5
sgRNA knockout: sgNFE2L2, 10000 nM	91.1 ± 12
sgRNA knockout: sgSLC35F2, 10 nM	116 ± 12
sgRNA knockout: sgSLC35F2, 100 nM	73.6 ± 1.7
sgRNA knockout: sgSLC35F2, 1000 nM	103 ± 17
sgRNA knockout: sgSLC35F2, 10000 nM	92.7 ± 3.4
sgRNA knockout: sgXBP1, 10 nM	95.7 ± 11
sgRNA knockout: sgXBP1, 100 nM	100 ± 28
sgRNA knockout: sgXBP1, 1000 nM	117 ± 9.4
sgRNA knockout: sgXBP1, 10000 nM	81.56 ± 0.42

CNC(=O)c1cc(Oc2ccc(NC(=O)Nc3ccc(Cl)c(C(F)(F)F)c3)cc2)ccn1 [Sorafenib]
Conditions	relative cell number
sgRNA knockout: sgATF3, 10 nM	135 ± 27
sgRNA knockout: sgATF3, 100 nM	141 ± 18
sgRNA knockout: sgATF3, 1000 nM	144 ± 28
sgRNA knockout: sgATF3, 10000 nM	51.1 ± 8.6
sgRNA knockout: sgATF4, 10 nM	105 ± 2.8
sgRNA knockout: sgATF4, 100 nM	116 ± 27
sgRNA knockout: sgATF4, 1000 nM	121 ± 33
sgRNA knockout: sgATF4, 10000 nM	37.6 ± 10
sgRNA knockout: sgATF6, 10 nM	111 ± 9.9
sgRNA knockout: sgATF6, 100 nM	107 ± 5.7
sgRNA knockout: sgATF6, 1000 nM	130 ± 12
sgRNA knockout: sgATF6, 10000 nM	38.7 ± 5.7
sgRNA knockout: sgATG7, 10 nM	114 ± 55
sgRNA knockout: sgATG7, 100 nM	115 ± 29
sgRNA knockout: sgATG7, 1000 nM	102 ± 11
sgRNA knockout: sgATG7, 10000 nM	44.8 ± 23
sgRNA knockout: sgERN1, 10 nM	97.4 ± 3.2
sgRNA knockout: sgERN1, 100 nM	128 ± 7.6
sgRNA knockout: sgERN1, 1000 nM	113 ± 9.2
sgRNA knockout: sgERN1, 10000 nM	44.2 ± 12
sgRNA knockout: sgHSF1, 10 nM	98.4 ± 12
sgRNA knockout: sgHSF1, 100 nM	117 ± 31
sgRNA knockout: sgHSF1, 1000 nM	107 ± 3.3
sgRNA knockout: sgHSF1, 10000 nM	43.1 ± 11
sgRNA knockout: sgHSF2, 10 nM	98.4 ± 19
sgRNA knockout: sgHSF2, 100 nM	120 ± 11
sgRNA knockout: sgHSF2, 1000 nM	106 ± 21
sgRNA knockout: sgHSF2, 10000 nM	37.1 ± 12
sgRNA knockout: sgKEAP1, 10 nM	100 ± 15
sgRNA knockout: sgKEAP1, 100 nM	107 ± 24
sgRNA knockout: sgKEAP1, 1000 nM	109 ± 15
sgRNA knockout: sgKEAP1, 10000 nM	40.7 ± 12
sgRNA knockout: sgNFE2L2, 10 nM	102.2 ± 0.2
sgRNA knockout: sgNFE2L2, 100 nM	126 ± 4.5
sgRNA knockout: sgNFE2L2, 1000 nM	89.4 ± 46
sgRNA knockout: sgNFE2L2, 10000 nM	34.9 ± 5.6
sgRNA knockout: sgSLC35F2, 10 nM	94.3 ± 23
sgRNA knockout: sgSLC35F2, 100 nM	114 ± 16
sgRNA knockout: sgSLC35F2, 1000 nM	110 ± 7.1
sgRNA knockout: sgSLC35F2, 10000 nM	49.6 ± 6.5
sgRNA knockout: sgXBP1, 10 nM	106 ± 26
sgRNA knockout: sgXBP1, 100 nM	113 ± 18
sgRNA knockout: sgXBP1, 1000 nM	121 ± 26
sgRNA knockout: sgXBP1, 10000 nM	43.6 ± 9.8
